Measurements taken from PubChem BioAssay AID2685 (National Center for Advancing Translational Sciences (NCATS), 2010).
This is one part of the list. These are further read-outs of the screen, such as a control signal, another cell line or another target. No call is given for them. The list favours compounds with an active or inconclusive main result. The note in brackets gives the kind of curve behind each potency; many fits are weak.

Assay: qHTS Assay for Lipid Storage Modulators in Drosophila S3 Cells;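 for cell number change: cells counted by Cell Tracker Red CMTPX staining in the red channel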
Settings: BODIPY lipid droplet fluorescence, 18-24 h; for cell number change: measured here: cell count max response, cells fed with added oleic acid
Procedure, shortened: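 Drosophila S3 cells got compounds at several concentrations plus oleic acid (400 uM solution). Laser-scanning cytometry with 488 nm excitation read lipid droplets at 500-530 nm and cells at 575-640 nm. Percent activity was relative to 20 uM Triacsin C.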

[1] = measured here: cell number channel AC50, cells fed with added oleic acid
[2] = measured here: lipid fluorescence (Fed channel) AC50, cells fed with added oleic acid

| Compound | AC50 [1] | cell number change [%] | AC50 [2] |
| --- | --- | --- | --- |
| COc1cc(/C=N/NC(N)=O)ccc1OC(=O)c1ccco1 | 7.31 µM [falling, single point] | – | – |
| CCC(C(=O)NC1CCN(C)CC1)c1ccccc1 (stereo unspecified) | – | -11.9 | 29.1 µM [rising, single point] |
| CN(c1ncc(C(F)(F)F)cc1Cl)N1C(=O)C2ONC3(C(=O)CC(C)(C)CC3=O)C2C1=O (stereo unspecified) | 0.184 µM [rising, full curve] | 48.7 | – |
| COc1cc(C(=O)NC(=S)NNC(=O)c2ccc3c(c2)OCO3)cc(OC)c1OC | – | 7.88 | – |
| COCCn1nnnc1C(C(C)C)N1CCC(Cc2ccccc2)CC1 (stereo unspecified) | – | 8.1 | 10.3 µM [rising, partial curve] |
| Cc1cc(C)c(CN2CCC(n3nccc3NC(=O)C3CCCC3)CC2)cc1C | – | 30.9 | 7.31 µM [rising, partial curve] |
| COC(=O)c1cn(-c2cccc(C)n2)cn1 | 2.31 µM [falling, partial curve, poor fit] | -34.8 | 0.206 µM [falling, full curve] |
| COc1ccc(-c2cc(C(=O)OC3CCOC3=O)c3ccccc3n2)cc1 (stereo unspecified) | 9.2 µM [rising, partial curve, poor fit] | 49.8 | – |
| Cc1ccc(C)c(NC(=O)CN(C)C(=O)[C@@H](NC(N)=O)C(C)C)c1 | 29.1 µM [rising, single point] | 49.9 | – |
| COc1cccc(N2CCN(Cc3nc(N)nc(Nc4ccccc4OC)n3)CC2)c1 | 2.06 µM [rising, partial curve] | – | – |
| CC(=O)c1cccc(NC(=S)NC(=O)c2cccc(Cl)c2)c1 | – | – | 10.3 µM [rising, partial curve] |
| C=CCn1c(-c2csc(-c3ccccc3)n2)n[nH]c1=S | – | – | 0.58 µM [rising, full curve, poor fit] |
| CC1(C)CC(=O)c2c(-c3cccnc3)n[nH]c2C1 | – | 2 | 0.92 µM [falling, full curve] |
| O=C(Nc1cccc2nsnc12)c1cccnc1Cl | 29.1 µM [falling, single point] | -33.3 | – |
| Cc1nnc(SCC(=O)Nc2nonc2C)s1 | – | 0.952 | – |
| Cc1cc(C)c(NC(=O)CN2C(=O)NC3(CCCCC3)C2=O)c(C)c1 | 6.51 µM [rising, single point] | 3.28 | 29.1 µM [rising, single point] |
| O=C(CSC1=NCCS1)Nc1ccc(S(=O)(=O)N2CCCCCC2)cc1 | – | -11.6 | – |
| Cc1nc2ccccc2c(=O)n1/N=C/c1ccc(O)cc1O | – | -7.64 | 1.84 µM [falling, partial curve] |

Two entries from above, as tab-separated lines.
Compound	AC50 [1]	cell number change [%]	AC50 [2]
COc1cc(C(=O)NC(=S)NNC(=O)c2ccc3c(c2)OCO3)cc(OC)c1OC	–	7.88	–
CC1(C)CC(=O)c2c(-c3cccnc3)n[nH]c2C1	–	2	0.92 µM [falling, full curve]
